In patent publication US20250166176A1, “METHODS AND MATERIALS FOR IMAGING ADIPOSE TISSUE” (CellSight Technologies Inc., priority 2022, published 2025):

Legend:
intrascapular BAT (iBAT) = assay: [18F]F-AraG and FDG PET imaging of BAT in mice treated with BRL37344, insulin or vehicle; format: in vivo
iBAT = assay: [18F]F-AraG PET imaging of iBAT in mice with GBM tumors; format: in vivo
Description: During our studies into the utility of ^18F-AraG in assessing intracranial T cell infiltration in glioblastoma multiforme (GBM) we made the unexpected and surprising discovery that ^18F-AraG can also image and/or assess the activation of adipose tissue (FIG. 2). Adipose, or fat, tissue (AT) was once considered an inert tissue that primarily existed to store lipids, and was not historically recognized as an important organ in the regulation and maintenance of health. With the rise of obesity and more rigorous research, AT is now recognized as a highly complex metabolic organ involved in a host of important physiological functions, including glucose homeostasis and a multitude of endocrine capabilities. […] The study of AT can provide useful insights in developing strategies to combat these highly prevalent metabolic diseases.
[^18F]F-AraG ability to track stimulated adipocytes allowed observation of activated iBAT in mice with bioluminescently-tagged GBM tumors. The activation occurred at different time points and varied in intensity.

Question: OC[C@H]1OC(O)[C@H]([18F])[C@@H](O)[C@@H]1O (stereo partly drawn) [FDG, 2-[F^18]fluoro-2-deoxy-D-glucose, reference compound] was tested. Which “tracer accumulation in iBAT (in words)” value (intrascapular BAT (iBAT)) did it give?
Answer: increased accumulation in iBAT not only with BRL37344 but in insulin-treated animals as well

Question: Which results are given for Nc1nc2c(ncn2[C@@H]2O[C@H](CO)[C@@H](O)[C@@H]2[18F])c(=O)[nH]1 [[^18F]F-AraG, [18F]-F-arabinofuranosyl guanine]?
Answer: fold increase in iBAT [18F]F-AraG signal (iBAT; OnTx3 vs. PreTx, one GBM mouse): ~9 fold; accumulation in brown fat (FIG. 2, in words) (iBAT; day 23 vs day 14 post gbm cell implantation): much higher accumulation in brown fat
